Read-outs that look alike come from different tables or passages of the source. These are yes or no findings as the source states them, for the method shown. Some results given as binding are weak or reduced against the parent protein; the word gives no strength. Where a sequence is shown, tags or fusion partners need not be part of it.

The chains behind the UniProt entries cited, without tags or fusion partners.
UniProt P51149: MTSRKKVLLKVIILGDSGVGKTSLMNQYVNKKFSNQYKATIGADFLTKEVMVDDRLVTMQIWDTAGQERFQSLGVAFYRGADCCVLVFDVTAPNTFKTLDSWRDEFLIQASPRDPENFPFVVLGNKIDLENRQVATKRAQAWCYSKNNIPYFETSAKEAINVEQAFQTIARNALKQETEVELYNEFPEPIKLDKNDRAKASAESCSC

Assay [1] deals with T1, GST-RabGDIα (UniProt P31150).
T1 sequence: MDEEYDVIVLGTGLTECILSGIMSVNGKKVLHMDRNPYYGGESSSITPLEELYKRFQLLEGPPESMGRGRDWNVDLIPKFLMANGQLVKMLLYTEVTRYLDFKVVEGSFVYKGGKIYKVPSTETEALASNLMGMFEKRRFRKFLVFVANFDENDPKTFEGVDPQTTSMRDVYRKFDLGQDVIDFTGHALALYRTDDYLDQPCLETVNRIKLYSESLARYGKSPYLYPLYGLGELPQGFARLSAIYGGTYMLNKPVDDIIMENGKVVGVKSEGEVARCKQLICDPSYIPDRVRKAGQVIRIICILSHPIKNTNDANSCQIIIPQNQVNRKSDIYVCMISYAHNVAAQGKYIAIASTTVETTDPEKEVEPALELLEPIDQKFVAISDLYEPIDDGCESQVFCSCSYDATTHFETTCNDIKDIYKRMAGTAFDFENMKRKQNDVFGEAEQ
As to the kind of experiment: pull-down.

The target of assay [2] is T1, GST-RabGDIα. As to the kind of experiment: pull-down. The source holds these as a separate data set.

Take “recombinant prenylated Rab7 (from UniProt P51149 1-207)”: the binding result in the assay with GST-RabGDIα [1] and with GST-RabGDIα [2] was “binds” throughout.

The values are drawn from paper doi:10.1101/287516.
